Laboratory results from article PMC12802923.
Results are given in words; binding and its absence hold for the method and conditions named. In cells and extracts the contact can be indirect. A result given as binding can be weak or reduced; the word gives no strength. Tags and fused reporters may be left off the sequences shown.

Amino acid sequences for entries named in this document (tags omitted). A change or cut given only in a name is not applied to a line headed by its entry.
UniProt P32562: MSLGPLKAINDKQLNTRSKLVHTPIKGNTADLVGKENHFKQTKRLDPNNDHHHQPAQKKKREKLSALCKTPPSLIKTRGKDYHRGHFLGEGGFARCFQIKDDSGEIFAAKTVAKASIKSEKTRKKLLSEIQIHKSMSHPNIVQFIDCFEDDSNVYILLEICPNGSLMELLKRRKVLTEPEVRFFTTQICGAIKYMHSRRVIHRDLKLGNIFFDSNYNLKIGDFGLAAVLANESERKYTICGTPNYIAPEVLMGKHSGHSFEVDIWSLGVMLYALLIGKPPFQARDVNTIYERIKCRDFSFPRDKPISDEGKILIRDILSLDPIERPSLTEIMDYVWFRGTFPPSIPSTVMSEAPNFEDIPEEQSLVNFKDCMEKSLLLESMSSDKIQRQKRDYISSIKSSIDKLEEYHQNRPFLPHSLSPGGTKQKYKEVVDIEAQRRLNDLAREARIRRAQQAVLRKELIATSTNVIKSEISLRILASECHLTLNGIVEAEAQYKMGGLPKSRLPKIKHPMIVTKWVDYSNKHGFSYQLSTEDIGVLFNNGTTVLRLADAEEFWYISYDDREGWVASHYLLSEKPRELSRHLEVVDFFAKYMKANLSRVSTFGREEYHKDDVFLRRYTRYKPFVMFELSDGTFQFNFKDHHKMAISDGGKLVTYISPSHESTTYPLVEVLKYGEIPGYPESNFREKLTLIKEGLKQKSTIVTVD

Target: Cdc5, kinase-dead substrate-trap allele (S. cerevisiae) (UniProt P32562)
Assay: co-IP; Cdc5-HA immunoprecipitated with anti-HA magnetic beads (2 h, 4°C, NP-40 buffer) from cells arrested in metaphase (cdc20 arrest, CDC20-AID) after galactose induction of Cdc5; Top2-9PK analysed in the precipitate

B1: Topoisomerase II (Top2), TOP2-9PK fusion (enzyme, UniProt P06786 1-1428)
chain: MSTEPVSASDKYQKISQLEHILKRPDTYIGSVETQEQLQWIYDEETDCMIEKNVTIVPGLFKIFDEILVNAADNKVRDPSMKRIDVNIHAEEHTIEVKNDGKGIPIEIHNKENIYIPEMIFGHLLTSSNYDDDEKKVTGGRNGYGAKLCNIFSTEFILETADLNVGQKYVQKWENNMSICHPPKITSYKKGPSYTKVTFKPDLTRFGMKELDNDILGVMRRRVYDINGSVRDINVYLNGKSLKIRNFKNYVELYLKSLEKKRQLDNGEDGAAKSDIPTILYERINNRWEVAFAVSDISFQQISFVNSIATTMGGTHVNYITDQIVKKISEILKKKKKKSVKSFQIKNNMFIFINCLIENPAFTSQTKEQLTTRVKDFGSRCEIPLEYINKIMKTDLATRMFEIADANEENALKKSDGTRKSRITNYPKLEDANKAGTKEGYKCTLVLTEGDSALSLAVAGLAVVGRDYYGCYPLRGKMLNVREASADQILKNAEIQAIKKIMGLQHRKKYEDTKSLRYGHLMIMTDQDHDGSHIKGLIINFLESSFPGLLDIQGFLLEFITPIIKVSITKPTKNTIAFYNMPDYEKWREEESHKFTWKQKYYKGLGTSLAQEVREYFSNLDRHLKIFHSLQGNDKDYIDLAFSKKKADDRKEWLRQYEPGTVLDPTLKEIPISDFINKELILFSLADNIRSIPNVLDGFKPGQRKVLYGCFKKNLKSELKVAQLAPYVSECTAYHHGEQSLAQTIIGLAQNFVGSNNIYLLLPNGAFGTRATGGKDAAAARYIYTELNKLTRKIFHPADDPLYKYIQEDEKTVEPEWYLPILPMILVNGAEGIGTGWSTYIPPFNPLEIIKNIRHLMNDEELEQMHPWFRGWTGTIEEIEPLRYRMYGRIEQIGDNVLEITELPARTWTSTIKEYLLLGLSGNDKIKPWIKDMEEQHDDNIKFIITLSPEEMAKTRKIGFYERFKLISPISLMNMVAFDPHGKIKKYNSVNEILSEFYYVRLEYYQKRKDHMSERLQWEVEKYSFQVKFIKMIIEKELTVTNKPRNAIIQELENLGFPRFNKEGKPYYGSPNDEIAEQINDVKGATSDEEDEESSHEDTENVINGPEELYGTYEYLLGMRIWSLTKERYQKLLKQKQEKETELENLLKLSAKDIWNTDLKAFEVGYQEFLQRDAEARGGNVPNKGSKTKGKGKRKLVDDEDYDPSKKNKKSTARKGKKIKLEDKNFERILLEQKLVTKSKAPTKIKKEKTPSVSETKTEEEENAPSSTSSSSIFDIKKEDKDEGELSKISNKFKKISTIFDKMGSTSATSKENTPEQDDVATKKNQTTAKKTAVKPKLAKKPVRKQQKVVELSGESDLEILDSYTDREDSNKDEDDAIPQRSRRQRSSRAASVPKKSYVETLELSDDSFIEDDEEENQGSDVSFNEED
Question: For B1, which binding is on record?
Answer: binds
